# Literature values as cited in patent publication US11612641B2, “Method for treating Huntingtons's disease” (UNIVERSITY OF IOWA RESEARCH FOUNDATION, priority 2014, dated 2023).
# For at least one compound, name, drawing or mass did not settle the structure.
# How the values were obtained:
# [1] = test system: Drosophila and N171-82Q HD mice; settings: systemic delivery (Ravikumar et al., 2004); cited from earlier work
# R6/2 HD mice = R6/2 HD mice (Fox et al., 2010); cited from earlier work
smiles,measurement,setting,value
CO[C@H]1C[C@@H]2CC[C@@H](C)[C@@](O)(O2)C(=O)C(=O)N2CCCC[C@H]2C(=O)O[C@H]([C@H](C)C[C@@H]2CC[C@@H](O)[C@H](OC)C2)CC(=O)[C@H](C)/C=C(\C)[C@@H](O)[C@@H](OC)C(=O)[C@H](C)C[C@H](C)/C=C/C=C/C=C/1C [rapamycin],disease phenotypes,[1],attenuates disease phenotypes
same,rotarod improvement,R6/2 HD mice,transient
